Source: the supplement of paper PMC10849652
This is one part of the list.

Protein sequences, listed by entry. Tags and fused reporters are not part of them. Lines headed by an entry give the natural chain unless they say otherwise; changes in a name come on top.
UniProt P56381: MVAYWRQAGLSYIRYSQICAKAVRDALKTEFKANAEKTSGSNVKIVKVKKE
UniProt P23634: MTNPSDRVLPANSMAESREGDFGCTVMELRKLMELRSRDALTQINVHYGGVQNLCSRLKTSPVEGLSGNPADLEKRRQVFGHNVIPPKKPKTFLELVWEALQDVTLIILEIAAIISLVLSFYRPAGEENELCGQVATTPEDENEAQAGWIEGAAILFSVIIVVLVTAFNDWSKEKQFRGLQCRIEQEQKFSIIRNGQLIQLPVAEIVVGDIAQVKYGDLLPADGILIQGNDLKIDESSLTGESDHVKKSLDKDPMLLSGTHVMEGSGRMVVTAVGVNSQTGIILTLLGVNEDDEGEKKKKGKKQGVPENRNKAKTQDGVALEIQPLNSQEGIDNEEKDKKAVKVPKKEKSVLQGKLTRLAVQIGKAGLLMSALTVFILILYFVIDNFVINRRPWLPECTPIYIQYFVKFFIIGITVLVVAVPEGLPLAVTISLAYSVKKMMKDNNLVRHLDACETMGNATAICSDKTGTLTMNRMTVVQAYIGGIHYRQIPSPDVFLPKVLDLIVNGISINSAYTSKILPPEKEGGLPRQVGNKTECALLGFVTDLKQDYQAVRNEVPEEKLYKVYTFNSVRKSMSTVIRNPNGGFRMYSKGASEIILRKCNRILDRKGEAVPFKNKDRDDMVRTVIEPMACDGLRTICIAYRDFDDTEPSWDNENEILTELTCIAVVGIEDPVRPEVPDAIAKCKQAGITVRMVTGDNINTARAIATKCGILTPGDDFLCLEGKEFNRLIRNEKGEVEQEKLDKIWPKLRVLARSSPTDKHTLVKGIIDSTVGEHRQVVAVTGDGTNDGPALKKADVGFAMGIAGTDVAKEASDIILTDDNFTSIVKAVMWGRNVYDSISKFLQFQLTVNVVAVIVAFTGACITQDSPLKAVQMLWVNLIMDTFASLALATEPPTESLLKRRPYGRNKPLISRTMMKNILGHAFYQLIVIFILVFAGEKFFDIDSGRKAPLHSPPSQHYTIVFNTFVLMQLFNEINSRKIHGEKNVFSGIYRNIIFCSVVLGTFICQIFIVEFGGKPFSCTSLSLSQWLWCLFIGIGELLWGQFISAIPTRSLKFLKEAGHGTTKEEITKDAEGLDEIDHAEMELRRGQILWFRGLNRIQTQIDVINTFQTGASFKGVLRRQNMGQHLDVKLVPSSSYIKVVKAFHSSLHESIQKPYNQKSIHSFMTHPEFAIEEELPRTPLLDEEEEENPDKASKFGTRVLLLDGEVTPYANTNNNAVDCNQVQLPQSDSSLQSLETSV
UniProt Q8N5M1: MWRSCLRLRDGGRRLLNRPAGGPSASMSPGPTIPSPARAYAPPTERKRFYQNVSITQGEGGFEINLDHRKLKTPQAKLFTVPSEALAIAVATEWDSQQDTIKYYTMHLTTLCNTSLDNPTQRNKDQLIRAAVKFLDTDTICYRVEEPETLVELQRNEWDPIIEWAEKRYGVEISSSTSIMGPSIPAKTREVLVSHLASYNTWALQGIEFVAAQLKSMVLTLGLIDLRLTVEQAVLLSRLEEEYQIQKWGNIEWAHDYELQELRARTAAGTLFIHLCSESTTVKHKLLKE
UniProt O95260: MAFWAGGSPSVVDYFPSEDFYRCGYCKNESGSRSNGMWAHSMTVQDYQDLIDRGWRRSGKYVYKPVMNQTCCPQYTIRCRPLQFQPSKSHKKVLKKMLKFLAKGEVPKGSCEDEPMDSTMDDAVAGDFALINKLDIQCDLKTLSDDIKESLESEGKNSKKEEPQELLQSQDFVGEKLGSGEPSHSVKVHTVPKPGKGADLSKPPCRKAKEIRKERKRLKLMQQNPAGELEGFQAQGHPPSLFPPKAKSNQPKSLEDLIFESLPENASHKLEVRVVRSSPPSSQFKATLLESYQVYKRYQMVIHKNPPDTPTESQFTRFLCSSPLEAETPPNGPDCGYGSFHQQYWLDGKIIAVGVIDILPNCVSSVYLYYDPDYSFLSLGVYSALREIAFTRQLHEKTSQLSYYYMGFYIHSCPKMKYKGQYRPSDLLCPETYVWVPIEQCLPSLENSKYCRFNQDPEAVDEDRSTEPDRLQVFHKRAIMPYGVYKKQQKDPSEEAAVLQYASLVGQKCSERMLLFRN
UniProt P48047: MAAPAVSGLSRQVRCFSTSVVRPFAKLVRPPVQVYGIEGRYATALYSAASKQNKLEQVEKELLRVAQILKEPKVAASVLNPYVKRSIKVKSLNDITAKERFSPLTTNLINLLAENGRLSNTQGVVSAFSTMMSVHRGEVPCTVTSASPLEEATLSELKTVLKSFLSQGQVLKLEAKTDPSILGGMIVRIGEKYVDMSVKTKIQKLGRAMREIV
UniProt Q676U5: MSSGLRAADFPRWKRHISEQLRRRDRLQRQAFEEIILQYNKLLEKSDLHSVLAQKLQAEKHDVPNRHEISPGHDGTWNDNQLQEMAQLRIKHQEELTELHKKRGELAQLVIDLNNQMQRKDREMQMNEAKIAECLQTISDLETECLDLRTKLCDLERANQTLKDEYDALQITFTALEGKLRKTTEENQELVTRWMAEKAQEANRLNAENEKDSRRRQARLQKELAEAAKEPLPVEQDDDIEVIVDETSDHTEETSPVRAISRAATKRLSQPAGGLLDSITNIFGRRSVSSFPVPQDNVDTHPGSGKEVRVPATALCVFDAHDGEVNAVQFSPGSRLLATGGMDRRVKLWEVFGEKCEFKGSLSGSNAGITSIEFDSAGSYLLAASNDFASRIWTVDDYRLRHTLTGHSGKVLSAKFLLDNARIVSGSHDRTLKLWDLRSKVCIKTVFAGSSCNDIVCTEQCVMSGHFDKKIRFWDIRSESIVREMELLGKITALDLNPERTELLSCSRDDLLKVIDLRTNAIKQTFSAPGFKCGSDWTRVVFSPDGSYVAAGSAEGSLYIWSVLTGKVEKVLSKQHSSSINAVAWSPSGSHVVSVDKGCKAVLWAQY
UniProt O75947: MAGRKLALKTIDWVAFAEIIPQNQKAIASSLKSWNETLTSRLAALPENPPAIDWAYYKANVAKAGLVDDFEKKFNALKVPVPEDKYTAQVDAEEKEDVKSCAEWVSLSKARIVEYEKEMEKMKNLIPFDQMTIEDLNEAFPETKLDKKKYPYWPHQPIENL
UniProt Q9NVJ2: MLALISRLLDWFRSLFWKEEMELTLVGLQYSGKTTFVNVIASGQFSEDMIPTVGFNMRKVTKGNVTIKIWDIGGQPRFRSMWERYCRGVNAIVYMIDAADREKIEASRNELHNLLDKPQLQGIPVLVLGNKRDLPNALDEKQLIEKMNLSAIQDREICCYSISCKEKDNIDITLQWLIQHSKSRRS
UniProt Q13510, whole entry, looked up: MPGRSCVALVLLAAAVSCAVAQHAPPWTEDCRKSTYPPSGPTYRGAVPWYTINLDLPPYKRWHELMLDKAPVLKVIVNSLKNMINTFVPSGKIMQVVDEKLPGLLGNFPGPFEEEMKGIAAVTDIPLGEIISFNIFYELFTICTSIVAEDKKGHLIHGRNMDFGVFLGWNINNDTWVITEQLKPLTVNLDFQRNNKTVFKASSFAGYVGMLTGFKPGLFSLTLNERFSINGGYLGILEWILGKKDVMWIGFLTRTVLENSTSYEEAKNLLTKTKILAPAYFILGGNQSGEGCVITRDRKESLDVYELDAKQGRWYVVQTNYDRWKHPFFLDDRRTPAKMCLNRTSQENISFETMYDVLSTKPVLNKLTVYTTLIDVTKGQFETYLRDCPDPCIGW
UniProt Q96IX5: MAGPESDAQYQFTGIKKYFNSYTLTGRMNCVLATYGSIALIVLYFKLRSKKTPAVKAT
UniProt Q6NXE6: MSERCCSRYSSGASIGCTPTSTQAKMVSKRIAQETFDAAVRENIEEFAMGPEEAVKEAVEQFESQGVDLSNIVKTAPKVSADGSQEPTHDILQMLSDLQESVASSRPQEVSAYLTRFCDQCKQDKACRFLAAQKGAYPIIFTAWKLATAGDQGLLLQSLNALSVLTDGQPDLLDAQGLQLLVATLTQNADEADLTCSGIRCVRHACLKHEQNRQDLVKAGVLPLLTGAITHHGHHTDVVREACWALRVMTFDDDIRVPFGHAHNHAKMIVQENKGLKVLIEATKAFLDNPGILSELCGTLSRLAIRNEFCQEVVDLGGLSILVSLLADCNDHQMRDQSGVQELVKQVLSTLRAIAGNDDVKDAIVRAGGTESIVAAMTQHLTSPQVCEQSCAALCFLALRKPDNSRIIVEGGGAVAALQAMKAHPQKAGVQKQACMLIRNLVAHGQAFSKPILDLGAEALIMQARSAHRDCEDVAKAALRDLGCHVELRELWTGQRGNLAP
UniProt Q9UH62: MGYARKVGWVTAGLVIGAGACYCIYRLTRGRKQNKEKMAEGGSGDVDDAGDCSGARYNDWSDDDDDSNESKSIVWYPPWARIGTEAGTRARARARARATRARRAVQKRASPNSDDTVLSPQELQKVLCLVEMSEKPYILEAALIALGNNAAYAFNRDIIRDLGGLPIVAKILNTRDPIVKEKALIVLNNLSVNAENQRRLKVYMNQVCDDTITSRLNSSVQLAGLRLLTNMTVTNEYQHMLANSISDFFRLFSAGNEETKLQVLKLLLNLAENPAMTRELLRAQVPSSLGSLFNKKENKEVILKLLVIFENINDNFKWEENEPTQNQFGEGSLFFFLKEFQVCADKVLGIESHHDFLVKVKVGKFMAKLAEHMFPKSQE
UniProt O95376: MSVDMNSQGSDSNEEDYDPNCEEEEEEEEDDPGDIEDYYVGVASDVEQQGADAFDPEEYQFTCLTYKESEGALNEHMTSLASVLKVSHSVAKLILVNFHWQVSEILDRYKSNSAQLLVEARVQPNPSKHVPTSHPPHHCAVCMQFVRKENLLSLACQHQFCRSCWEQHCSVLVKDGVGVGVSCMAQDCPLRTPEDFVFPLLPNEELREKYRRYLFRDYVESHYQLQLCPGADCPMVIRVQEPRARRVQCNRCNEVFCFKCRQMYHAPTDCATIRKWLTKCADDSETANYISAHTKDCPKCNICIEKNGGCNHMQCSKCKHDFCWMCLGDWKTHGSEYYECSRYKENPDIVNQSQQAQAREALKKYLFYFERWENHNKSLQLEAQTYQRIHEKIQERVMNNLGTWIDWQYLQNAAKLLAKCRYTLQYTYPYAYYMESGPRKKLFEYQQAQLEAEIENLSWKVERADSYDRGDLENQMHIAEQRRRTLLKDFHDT
UniProt P36542: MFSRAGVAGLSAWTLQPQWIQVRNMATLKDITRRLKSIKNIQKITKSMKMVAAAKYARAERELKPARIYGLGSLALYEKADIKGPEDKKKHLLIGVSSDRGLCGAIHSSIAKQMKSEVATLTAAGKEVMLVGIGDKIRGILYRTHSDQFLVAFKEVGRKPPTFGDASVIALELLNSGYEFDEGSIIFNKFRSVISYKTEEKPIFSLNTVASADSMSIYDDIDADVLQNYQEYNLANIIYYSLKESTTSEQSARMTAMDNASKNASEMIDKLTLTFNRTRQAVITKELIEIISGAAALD

Key:
Experiment in all cases: log2 fold change, soluble protein after heating vs DMSO (PISA); higher = thermal stabilisation; K562 cells, 10 uM, 30 min; active = over 0.2 and 3.5 SD of the protein, either way, in both replicates (recomputed)
[1] = compound: CS(=O)(=O)c1ccc(-c2cnc(N)c(C(=O)Nc3ccccc3)n2)cc1
Method in brief: (§1)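 For each measurement, 10 μM compound was applied for 30 min to K562 cells at 2×10^6 cells/mL. Aliquots were heated for 3 min across 48°C-58°C, pooled, and extracted in PBS with 0.5% NP-40 at 4°C; the supernatant after 21,000xg for 90 min was soluble protein. This was quantified by TMTpro 16plex LC-MS/MS with channel sums equalised, and thermal stability was reported relative to control samples from duplicates, on a log2 fold-change scale.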

crizotinib = compound: C[C@@H](Oc1cc(-c2cnn(C3CCNCC3)c2)cnc1N)c1c(Cl)ccc(F)c1Cl [crizotinib]
Method in brief: as §1

[2] = compound: C[C@@H]1COCCN1C2=NC(=NC(=C2)C3(CC3)S(=O)(=O)C)C4=C5C=CNC5=CC=C4
Method in brief: as §1

[3] = compound: C[C@H](C1=CC=C(C=C1)C(=O)NC2=C3C=CNC3=NC=C2)N
Method in brief: as §1

duvelisib = compound: C[C@H](Nc1ncnc2nc[nH]c12)c1cc2cccc(Cl)c2c(=O)n1-c1ccccc1 [duvelisib]
Method in brief: as §1

gandotinib = compound: Cc1cc(Nc2cc(CN3CCOCC3)c3nc(C)c(Cc4ccc(Cl)cc4F)n3n2)n[nH]1 [gandotinib]
Method in brief: as §1

tozasertib = compound: Cc1cc(Nc2cc(N3CCN(C)CC3)nc(Sc3ccc(NC(=O)C4CC4)cc3)n2)n[nH]1 [tozasertib]
Method in brief: as §1

[4] = compound: Cc1cc(SCc2sc(-c3ccc(C(F)(F)F)cc3)nc2C)ccc1OCC(=O)O
Method in brief: as §1

doramapimod = compound: Cc1ccc(-n2nc(C(C)(C)C)cc2NC(=O)Nc2ccc(OCCN3CCOCC3)c3ccccc23)cc1 [doramapimod]
Method in brief: as §1

ispinesib = compound: Cc1ccc(C(=O)N(CCCN)[C@@H](c2nc3cc(Cl)ccc3c(=O)n2Cc2ccccc2)C(C)C)cc1 [ispinesib]
Method in brief: as §1

bafetinib = compound: Cc1ccc(NC(=O)c2ccc(CN3CC[C@H](N(C)C)C3)c(C(F)(F)F)c2)cc1Nc1nccc(-c2cncnc2)n1 [bafetinib]
Method in brief: as §1

[5] = compound: Cc1cccc(CC(=O)N2CCc3c2ccc(-c2cn(C)c4ncnc(N)c24)c3F)n1
Method in brief: as §1

nilotinib = compound: Cc1cn(-c2cc(NC(=O)c3ccc(C)c(Nc4nccc(-c5cccnc5)n4)c3)cc(C(F)(F)F)c2)cn1 [nilotinib]
Method in brief: as §1

[6] = compound: Cc1nc(Nc2n[nH]c3c2CN(C(=O)N[C@H](CN(C)C)c2ccccc2)C3(C)C)c2sccc2n1
Method in brief: as §1

dasatinib = compound: Cc1nc(Nc2ncc(C(=O)Nc3c(C)cccc3Cl)s2)cc(N2CCN(CCO)CC2)n1 [dasatinib]
Method in brief: as §1

[7] = compound: Cc1ncc(-c2ccnc(Nc3ccc(S(C)(=O)=O)cc3)n2)n1C(C)C
Method in brief: as §1

[8] = compound: Cn1cc(-c2ccc3c(c2)CCN3C(=O)Cc2cccc(C(F)(F)F)c2)c2c(N)ncnc21
Method in brief: as §1

[9] = compound: Cn1cc(-c2ccc3nnc(C(F)(F)c4ccc5ncccc5c4)n3n2)cn1
Method in brief: as §1

tipifarnib = compound: Cn1cncc1[C@@](N)(c1ccc(Cl)cc1)c1ccc2c(c1)c(-c1cccc(Cl)c1)cc(=O)n2C [tipifarnib]
Method in brief: as §1

mubritinib = compound: FC(F)(F)c1ccc(/C=C/c2nc(COc3ccc(CCCCn4ccnn4)cc3)co2)cc1 [mubritinib]
Method in brief: as §1

Measured: log2 fold change

ATP5F1E (UniProt P56381)
inactive: [1] -0.003 | crizotinib 0.096 | [2] -0.074 | [3] -0.053 | duvelisib -0.001 | gandotinib 0.042 | tozasertib -0.018 | [4] -0.073 | doramapimod -0.029 | ispinesib 0.065 | bafetinib -0.104 | [5] -0.02 | nilotinib -0.002 | [6] -0.023 | dasatinib 0.109 | [7] -0.046 | [8] -0.029 | [9] 0.065 | tipifarnib 0.067 | mubritinib 0.042

ATP2B4 (UniProt P23634)
inactive: [1] 0.038 | crizotinib 0.126 | [2] 0.069 | [3] -0.048 | duvelisib 0.011 | gandotinib 0 | tozasertib -0.051 | [4] -0.048 | doramapimod -0.017 | ispinesib 0.087 | bafetinib -0.091 | [5] -0.05 | nilotinib -0.002 | [6] -0.013 | dasatinib 0.024 | [7] -0.009 | [8] 0.002 | [9] -0.012 | tipifarnib 0.056 | mubritinib 0.04

ATPAF2 (UniProt Q8N5M1)
inactive: [1] -0.014 | crizotinib 0.016 | [2] 0.003 | [3] 0.015 | duvelisib -0.029 | gandotinib -0.021 | tozasertib 0.006 | [4] 0.055 | doramapimod -0.012 | ispinesib -0.003 | bafetinib -0.024 | [5] 0.006 | nilotinib 0.011 | [6] -0.016 | dasatinib 0.015 | [7] -0.036 | [8] 0.019 | [9] 0.035 | tipifarnib 0.057 | mubritinib 0.045

ATE1 isoform 2 (UniProt O95260)
inactive: [1] 0.068 | crizotinib 0.048 | [2] -0.04 | [3] 0.026 | duvelisib 0.113 | gandotinib 0.216 | tozasertib 0.011 | [4] 0.07 | doramapimod -0.038 | ispinesib -0.002 | bafetinib -0.029 | [5] -0.024 | nilotinib 0.017 | [6] -0.024 | dasatinib -0.017 | [7] 0.049 | [8] 0.172 | [9] -0.019 | tipifarnib -0.023 | mubritinib 0.038

ATP5PO (UniProt P48047)
inactive: [1] -0.01 | crizotinib 0.065 | [2] -0.014 | [3] -0.014 | duvelisib -0.01 | gandotinib -0.006 | tozasertib -0.018 | [4] -0.037 | doramapimod -0.02 | ispinesib -0.022 | bafetinib -0.02 | [5] -0.021 | nilotinib 0.02 | [6] 0.025 | dasatinib 0.075 | [7] -0.021 | [8] -0.038 | [9] 0.028 | tipifarnib 0.051 | mubritinib 0.02

ATG16L1 (UniProt Q676U5)
inactive: [1] 0.12 | crizotinib -0.1 | [2] 0.139 | [3] -0.035 | duvelisib 0.005 | gandotinib 0.013 | tozasertib -0.01 | [4] -0.017 | doramapimod 0 | ispinesib -0.003 | bafetinib 0.016 | [5] 0.025 | nilotinib 0.003 | [6] -0.007 | dasatinib 0.01 | [7] -0.013 | [8] 0.048 | [9] -0.01 | tipifarnib -0.008 | mubritinib 0.052

ATP5PD (UniProt O75947)
inactive: [1] 0.013 | crizotinib 0.071 | [2] 0.094 | [3] -0.097 | duvelisib -0.013 | gandotinib -0.013 | tozasertib 0.019 | [4] 0.008 | doramapimod -0.025 | ispinesib 0.077 | bafetinib -0.044 | [5] 0.035 | nilotinib -0.011 | [6] 0.043 | dasatinib 0.023 | [7] -0.012 | [8] 0.025 | [9] 0.025 | tipifarnib 0.033 | mubritinib -0.001

ARL8B (UniProt Q9NVJ2)
inactive: [1] 0.008 | crizotinib -0.082 | [2] -0.013 | [3] -0.045 | duvelisib 0.016 | gandotinib 0.062 | tozasertib -0.011 | [4] -0.002 | doramapimod -0.025 | ispinesib -0.123 | bafetinib -0.124 | [5] 0.007 | nilotinib 0.058 | [6] -0.019 | dasatinib 0.01 | [7] -0.008 | [8] -0.005 | [9] 0.028 | tipifarnib 0.021 | mubritinib 0.013

ASAH1 isoform 2 (UniProt Q13510)
inactive: [1] -0.002 | crizotinib -0.081 | [2] 0.001 | [3] -0.066 | duvelisib 0.043 | gandotinib -0.021 | tozasertib -0.04 | [4] 0 | doramapimod -0.004 | ispinesib 0.02 | bafetinib -0.067 | [5] -0.001 | nilotinib 0.017 | [6] 0.017 | dasatinib -0.045 | [7] 0.009 | [8] -0.011 | [9] 0.009 | tipifarnib 0.04 | mubritinib 0.023

ATP5MD (UniProt Q96IX5)
inactive: [1] 0.084 | crizotinib 0.165 | [2] -0.001 | [3] -0.184 | duvelisib -0.025 | gandotinib 0.109 | tozasertib 0.072 | [4] 0.027 | doramapimod -0.141 | ispinesib -0.009 | bafetinib -0.104 | [5] -0.026 | nilotinib 0.124 | [6] -0.029 | dasatinib 0 | [7] 0.03 | [8] 0.141 | [9] 0.11 | tipifarnib -0.134 | mubritinib 0

ARPC4 isoform 3 (UniProt P59998)
inactive: [1] 0.058 | crizotinib 0.078 | [2] 0.147 | [3] -0.07 | duvelisib 0.014 | gandotinib 0.022 | tozasertib 0.052 | [4] -0.061 | doramapimod -0.014 | ispinesib 0.068 | bafetinib 0 | [5] -0.035 | nilotinib 0.104 | [6] -0.027 | dasatinib 0.103 | [7] 0.011 | [8] -0.009 | [9] -0.003 | tipifarnib -0.034 | mubritinib 0.058

ATP1A3 isoform 3 (UniProt P13637)
inactive: [1] 0.032 | crizotinib 0.155 | [2] 0.019 | [3] -0.089 | duvelisib 0.04 | gandotinib -0.015 | tozasertib -0.075 | [4] -0.064 | doramapimod -0.022 | ispinesib 0.093 | bafetinib -0.004 | [5] -0.039 | nilotinib 0.045 | [6] -0.001 | dasatinib 0.08 | [7] 0.053 | [8] -0.008 | [9] -0.019 | tipifarnib 0.011 | mubritinib 0.076

Two records picked at random from those above, as already listed:
ARL8B (UniProt Q9NVJ2)
inactive: [1] 0.008 | crizotinib -0.082 | [2] -0.013 | [3] -0.045 | duvelisib 0.016 | gandotinib 0.062 | tozasertib -0.011 | [4] -0.002 | doramapimod -0.025 | ispinesib -0.123 | bafetinib -0.124 | [5] 0.007 | nilotinib 0.058 | [6] -0.019 | dasatinib 0.01 | [7] -0.008 | [8] -0.005 | [9] 0.028 | tipifarnib 0.021 | mubritinib 0.013

ASAH1 isoform 2 (UniProt Q13510)
inactive: [1] -0.002 | crizotinib -0.081 | [2] 0.001 | [3] -0.066 | duvelisib 0.043 | gandotinib -0.021 | tozasertib -0.04 | [4] 0 | doramapimod -0.004 | ispinesib 0.02 | bafetinib -0.067 | [5] -0.001 | nilotinib 0.017 | [6] 0.017 | dasatinib -0.045 | [7] 0.009 | [8] -0.011 | [9] 0.009 | tipifarnib 0.04 | mubritinib 0.023

Additional results

ARMC6 (UniProt Q6NXE6)
inactive: [1] 0.131 | crizotinib -0.066 | [2] -0.262 | [3] 0.416 | duvelisib -0.147 | gandotinib 0.011 | tozasertib 0.133 | [4] 0.24 | doramapimod 0.318 | ispinesib -0.302 | bafetinib -0.027 | [5] 0.063 | nilotinib -0.024 | [6] -0.069 | dasatinib 0.013 | [7] 0.004 | [8] -0.22 | [9] -0.103 | tipifarnib 0.102 | mubritinib -0.065

ARMCX3 (UniProt Q9UH62)
inactive: [1] 0.017 | crizotinib -0.112 | [2] 0.113 | [3] 0.169 | duvelisib 0.012 | gandotinib 0.059 | tozasertib 0.115 | [4] 0.022 | doramapimod 0.1 | ispinesib -0.103 | bafetinib 0.029 | [5] 0.082 | nilotinib -0.046 | [6] 0 | dasatinib -0.188 | [7] 0.01 | [8] -0.038 | [9] -0.094 | tipifarnib -0.08 | mubritinib 0.004

ARIH2 (UniProt O95376)
inactive: [1] 0.023 | crizotinib 0.02 | [2] 0.031 | [3] -0.104 | duvelisib 0.008 | gandotinib 0.028 | tozasertib 0.05 | [4] -0.01 | doramapimod -0.078 | ispinesib 0.081 | bafetinib -0.09 | [5] 0.014 | nilotinib -0.012 | [6] -0.053 | dasatinib -0.029 | [7] 0.022 | [8] -0.027 | [9] -0.006 | tipifarnib 0.043 | mubritinib 0.037

ATP5F1C (UniProt P36542)
inactive: [1] -0.002 | crizotinib 0.043 | [2] 0.059 | [3] -0.006 | duvelisib 0.025 | gandotinib 0.018 | tozasertib -0.008 | [4] -0.009 | doramapimod -0.012 | ispinesib 0 | bafetinib -0.011 | [5] -0.012 | nilotinib -0.009 | [6] 0.015 | dasatinib 0.036 | [7] -0.02 | [8] 0.008 | [9] 0.029 | tipifarnib 0.003 | mubritinib 0.036
